This is an account of results in paper PMC12817929.

The chains behind the UniProt entries cited, without tags or fusion partners. Residues count along the entry.
UniProt P38646, residues 47-679: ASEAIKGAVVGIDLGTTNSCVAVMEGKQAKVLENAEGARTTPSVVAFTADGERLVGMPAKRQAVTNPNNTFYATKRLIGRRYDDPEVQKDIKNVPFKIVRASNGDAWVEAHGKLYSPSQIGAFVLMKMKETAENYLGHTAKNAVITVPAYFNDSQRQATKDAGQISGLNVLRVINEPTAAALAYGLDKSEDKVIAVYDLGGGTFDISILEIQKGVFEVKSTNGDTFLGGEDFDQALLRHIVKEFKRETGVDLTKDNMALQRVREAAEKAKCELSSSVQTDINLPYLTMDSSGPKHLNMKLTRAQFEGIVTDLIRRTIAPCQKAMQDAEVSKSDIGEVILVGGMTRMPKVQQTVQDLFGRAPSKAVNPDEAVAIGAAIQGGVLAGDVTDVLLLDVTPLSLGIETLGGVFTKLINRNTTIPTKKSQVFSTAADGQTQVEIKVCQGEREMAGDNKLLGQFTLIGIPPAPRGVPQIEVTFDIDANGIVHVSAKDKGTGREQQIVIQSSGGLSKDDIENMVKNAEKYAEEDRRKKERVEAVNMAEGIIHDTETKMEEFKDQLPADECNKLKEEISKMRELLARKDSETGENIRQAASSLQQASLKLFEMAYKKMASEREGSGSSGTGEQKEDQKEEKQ
UniProt P11142: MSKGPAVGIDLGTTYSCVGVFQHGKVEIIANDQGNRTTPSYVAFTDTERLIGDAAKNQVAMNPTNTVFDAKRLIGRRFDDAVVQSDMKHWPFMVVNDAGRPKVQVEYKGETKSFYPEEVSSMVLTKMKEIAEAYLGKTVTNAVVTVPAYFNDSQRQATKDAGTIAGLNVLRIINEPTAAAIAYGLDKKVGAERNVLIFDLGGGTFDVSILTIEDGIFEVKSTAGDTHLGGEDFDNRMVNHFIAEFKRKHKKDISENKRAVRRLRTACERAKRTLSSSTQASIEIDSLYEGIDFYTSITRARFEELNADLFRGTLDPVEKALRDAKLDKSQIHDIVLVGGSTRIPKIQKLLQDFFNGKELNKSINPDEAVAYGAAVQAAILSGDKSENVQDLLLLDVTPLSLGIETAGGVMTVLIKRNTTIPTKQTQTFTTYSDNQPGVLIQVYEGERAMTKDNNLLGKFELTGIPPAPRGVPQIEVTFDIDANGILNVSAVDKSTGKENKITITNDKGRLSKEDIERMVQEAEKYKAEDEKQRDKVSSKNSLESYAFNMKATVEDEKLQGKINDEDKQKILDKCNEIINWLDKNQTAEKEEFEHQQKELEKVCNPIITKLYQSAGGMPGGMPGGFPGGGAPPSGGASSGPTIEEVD

For this experiment, the target named is HA-tagged GRP75 (GRP75-HA) (not stated (human or porcine cDNA cloned)) (UniProt P38646). Nature of the experiment: co-IP; HEK-293T co-transfected with GRP75-HA and HSC70-MYC for 48 h, NP-40 lysis, IP with HA-specific antibody, blot with MYC antibody.

Results are given in words; binding and its absence hold for the method and conditions named. In cells and extracts the contact can be indirect. Some binding calls cover weakened binding; strength is not graded here.

With “MYC-tagged HSC70 (HSC70-MYC) in HEK-293T cells (from UniProt P11142 1-646)”, the binding result is “binds”.
